Data: patent US4450165A, “Dihydropyridine compounds” (Yoshitomi Pharmaceutical Industries, Ltd., priority 1981, dated 1984)

System: coronary blood flow (left coronary artery)
Assay: Effect on coronary blood flow
Type: in vivo, mongrel dogs
Conditions: anesthetized dogs
Method: The perfused flow was measured by means of an electromagnitic flow-meter. The test compound was dissolved in an aqueous solution containing 15% ethanol and 15% polyethylene glycol, and injected into the afferent cannula. […] The duration was measured as the time for which the half maximum response remained.

How did the “Duration (time for which the half maximum response remained)” value turn out when `COC(=O)C1=C(C)NC(C)=C(C(=O)OC)C1c1ccccc1[N+](=O)[O-]` [Nifedipine] was run?
The value was 2.0 min.
